These are yes or no findings as the source states them, for the method shown. Some entries that bind do so weakly or less than the wild type. For some assays here: Sequences can lack the tags named with a protein.
Tests used:
[1] = target: T1, cyno extracellular domain (ECD) of CD3 (cynomolgus monkey) (UniProt Q95LI5); assay: BIAcore SPR
T1 sequence (looked up): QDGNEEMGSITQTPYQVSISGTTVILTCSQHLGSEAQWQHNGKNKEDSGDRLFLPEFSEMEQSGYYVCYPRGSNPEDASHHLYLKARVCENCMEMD

By UniProt entry, the sequences of proteins in these tests, tags left out. Residues count along the entry.
UniProt P07766, residues 23-126: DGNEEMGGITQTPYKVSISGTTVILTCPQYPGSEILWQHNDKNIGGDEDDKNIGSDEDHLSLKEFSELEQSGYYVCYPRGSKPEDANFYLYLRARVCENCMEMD

human LY6G6D-Fc (human) [2] = target: T2, human LY6G6D-Fc (human) (UniProt O95868); assay: BIAcore SPR
T2 sequence: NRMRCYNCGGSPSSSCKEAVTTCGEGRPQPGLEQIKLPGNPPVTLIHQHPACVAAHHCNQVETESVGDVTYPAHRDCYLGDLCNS

[3] = target: human extracellular domain (ECD) of CD3 (human) (UniProt P07766); assay: BIAcore SPR
human LY6G6D-Fc (human) [4] = target: T2, human LY6G6D-Fc (human); assay: BIAcore SPR; as a TDB at 37 C
human LY6G6D-Fc (human) [5] = target: T2, human LY6G6D-Fc (human); assay: BIAcore SPR; LY6G6D-Fc on chip; TDB flowed; 37 C

binding [1]: binds | binding (human LY6G6D-Fc (human) [2]): binds | binding [3]: binds | binding (human LY6G6D-Fc (human) [4]): binds | binding (human LY6G6D-Fc (human) [5]): binds
B1: LY6G6D TDB comprising the anti-LY6G6D 20A12.QNTv12 arm (two-cell) and the anti-CD3 38E4v1 arm (bispecific antibody, V domains shown)
VH 1: EVQLLESGGGLVQPGGSLRLSCAASGFDFVNNAMIWVRQAPGKGLEWVSALSFADNTAYYATWASGRFTISRDSSKTTVYLQMNSLRAEDTAVYYCMRGDLWGPGTLVTVSS
VL 1: DIQMTQSPSTLSASVGDRVTITCQASESITRYLNWYQQKPGKAPKLLIYDASKLPSGVPSRFSGSGSGTEFTLTISSLQPDDFATYYCQSTSFRGRSYQNTFGGGTKVEIK
VH 2: EVQLVQSGAEVKKPGASVKVSCKASGFTFTSYYIHWVRQAPGQGLEWIGWIYPENDNTKYNEKFKDRVTITADTSTSTAYLELSSLRSEDTAVYYCARDGYSRYYFDYWGQGTLVTVSS
VL 2: DIVMTQSPDSLAVSLGERATINCKSSQSLLNSRTRKNYLAWYQQKPGQSPKLLIYWTSTRKSGVPDRFSGSGSGTDFTLTISSLQAEDVAVYYCKQSFILRTFGQGTKVEIK

Source: patent publication US20210179715A1
